From doi:10.1101/2024.09.19.613927

Amino acid sequences for entries named in this document (tags omitted).
UniProt P42858: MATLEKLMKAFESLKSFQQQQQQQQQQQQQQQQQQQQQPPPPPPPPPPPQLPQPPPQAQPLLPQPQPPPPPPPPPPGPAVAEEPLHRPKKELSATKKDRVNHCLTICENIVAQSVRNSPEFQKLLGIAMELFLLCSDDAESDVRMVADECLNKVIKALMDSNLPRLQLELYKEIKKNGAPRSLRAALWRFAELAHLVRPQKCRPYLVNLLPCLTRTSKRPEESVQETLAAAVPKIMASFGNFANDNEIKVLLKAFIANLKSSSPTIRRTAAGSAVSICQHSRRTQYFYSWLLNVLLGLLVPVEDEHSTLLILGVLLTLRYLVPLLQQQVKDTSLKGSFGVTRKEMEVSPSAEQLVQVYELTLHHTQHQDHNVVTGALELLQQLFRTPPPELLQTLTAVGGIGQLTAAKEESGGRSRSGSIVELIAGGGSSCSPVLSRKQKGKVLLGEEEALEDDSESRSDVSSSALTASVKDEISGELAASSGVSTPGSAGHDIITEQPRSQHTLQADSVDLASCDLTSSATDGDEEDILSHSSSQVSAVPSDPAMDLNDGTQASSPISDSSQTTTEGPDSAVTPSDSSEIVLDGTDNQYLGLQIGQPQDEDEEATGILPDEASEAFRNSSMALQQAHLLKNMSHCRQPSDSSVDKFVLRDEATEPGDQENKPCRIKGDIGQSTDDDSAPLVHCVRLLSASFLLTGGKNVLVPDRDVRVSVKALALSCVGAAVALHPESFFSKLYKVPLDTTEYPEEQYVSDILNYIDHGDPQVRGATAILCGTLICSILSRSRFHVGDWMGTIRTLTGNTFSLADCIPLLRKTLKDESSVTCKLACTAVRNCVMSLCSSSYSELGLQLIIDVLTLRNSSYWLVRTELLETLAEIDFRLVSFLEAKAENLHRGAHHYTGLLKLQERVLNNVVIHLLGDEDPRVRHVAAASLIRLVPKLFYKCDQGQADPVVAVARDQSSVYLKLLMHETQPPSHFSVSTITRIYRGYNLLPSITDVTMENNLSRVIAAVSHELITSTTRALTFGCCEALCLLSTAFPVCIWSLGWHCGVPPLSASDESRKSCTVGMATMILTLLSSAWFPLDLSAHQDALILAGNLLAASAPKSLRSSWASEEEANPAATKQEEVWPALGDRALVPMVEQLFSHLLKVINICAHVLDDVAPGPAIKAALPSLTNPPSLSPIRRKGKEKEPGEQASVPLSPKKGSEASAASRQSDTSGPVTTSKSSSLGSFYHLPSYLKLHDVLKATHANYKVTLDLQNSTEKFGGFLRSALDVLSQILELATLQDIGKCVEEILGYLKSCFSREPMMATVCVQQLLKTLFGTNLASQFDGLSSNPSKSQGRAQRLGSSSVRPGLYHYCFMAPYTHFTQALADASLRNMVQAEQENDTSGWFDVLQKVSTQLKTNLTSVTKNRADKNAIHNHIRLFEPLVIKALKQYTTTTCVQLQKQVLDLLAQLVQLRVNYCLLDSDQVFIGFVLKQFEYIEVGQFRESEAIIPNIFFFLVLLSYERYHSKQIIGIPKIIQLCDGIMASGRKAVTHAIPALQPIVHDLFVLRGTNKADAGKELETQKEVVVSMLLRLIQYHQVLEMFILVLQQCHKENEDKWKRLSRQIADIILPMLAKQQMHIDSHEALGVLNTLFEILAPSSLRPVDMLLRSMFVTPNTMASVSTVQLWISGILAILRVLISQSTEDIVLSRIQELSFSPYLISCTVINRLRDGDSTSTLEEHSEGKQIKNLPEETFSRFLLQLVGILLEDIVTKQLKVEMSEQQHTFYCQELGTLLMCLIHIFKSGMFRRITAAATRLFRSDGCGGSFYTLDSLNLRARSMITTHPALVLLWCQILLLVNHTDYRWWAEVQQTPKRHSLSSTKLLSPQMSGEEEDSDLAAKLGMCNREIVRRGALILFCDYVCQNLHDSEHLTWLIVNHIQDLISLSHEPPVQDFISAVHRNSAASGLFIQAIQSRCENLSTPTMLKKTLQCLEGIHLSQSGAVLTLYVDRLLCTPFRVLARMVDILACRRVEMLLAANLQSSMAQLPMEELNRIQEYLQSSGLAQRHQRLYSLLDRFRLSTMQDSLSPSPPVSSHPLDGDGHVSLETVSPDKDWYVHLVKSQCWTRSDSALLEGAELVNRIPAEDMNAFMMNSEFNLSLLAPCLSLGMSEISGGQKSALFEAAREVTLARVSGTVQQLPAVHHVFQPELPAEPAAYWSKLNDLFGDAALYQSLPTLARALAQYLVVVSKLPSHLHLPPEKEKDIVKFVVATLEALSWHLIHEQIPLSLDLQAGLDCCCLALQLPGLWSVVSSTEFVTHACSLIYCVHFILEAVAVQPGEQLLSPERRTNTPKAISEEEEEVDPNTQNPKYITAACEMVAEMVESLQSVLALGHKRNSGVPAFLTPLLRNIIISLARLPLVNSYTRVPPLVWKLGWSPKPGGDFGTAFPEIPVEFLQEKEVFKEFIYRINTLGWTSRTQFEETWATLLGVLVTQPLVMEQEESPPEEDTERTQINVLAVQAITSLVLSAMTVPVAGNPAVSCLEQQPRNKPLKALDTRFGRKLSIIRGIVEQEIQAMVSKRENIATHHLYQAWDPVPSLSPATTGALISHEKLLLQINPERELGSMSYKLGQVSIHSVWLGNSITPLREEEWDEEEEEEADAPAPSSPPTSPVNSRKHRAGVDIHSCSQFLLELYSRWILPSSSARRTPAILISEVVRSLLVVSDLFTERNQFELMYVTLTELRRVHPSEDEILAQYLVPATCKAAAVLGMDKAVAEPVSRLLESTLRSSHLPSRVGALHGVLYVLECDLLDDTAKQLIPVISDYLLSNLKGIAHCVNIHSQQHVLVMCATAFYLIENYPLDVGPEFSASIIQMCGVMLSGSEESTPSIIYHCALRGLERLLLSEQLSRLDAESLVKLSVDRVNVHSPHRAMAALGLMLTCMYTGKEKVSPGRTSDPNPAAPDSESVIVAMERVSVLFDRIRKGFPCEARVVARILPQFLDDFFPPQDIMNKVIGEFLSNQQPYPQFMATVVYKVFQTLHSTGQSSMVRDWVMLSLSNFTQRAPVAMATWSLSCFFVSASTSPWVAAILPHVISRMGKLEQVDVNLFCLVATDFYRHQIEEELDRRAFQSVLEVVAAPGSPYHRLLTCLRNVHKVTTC
UniProt Q92878: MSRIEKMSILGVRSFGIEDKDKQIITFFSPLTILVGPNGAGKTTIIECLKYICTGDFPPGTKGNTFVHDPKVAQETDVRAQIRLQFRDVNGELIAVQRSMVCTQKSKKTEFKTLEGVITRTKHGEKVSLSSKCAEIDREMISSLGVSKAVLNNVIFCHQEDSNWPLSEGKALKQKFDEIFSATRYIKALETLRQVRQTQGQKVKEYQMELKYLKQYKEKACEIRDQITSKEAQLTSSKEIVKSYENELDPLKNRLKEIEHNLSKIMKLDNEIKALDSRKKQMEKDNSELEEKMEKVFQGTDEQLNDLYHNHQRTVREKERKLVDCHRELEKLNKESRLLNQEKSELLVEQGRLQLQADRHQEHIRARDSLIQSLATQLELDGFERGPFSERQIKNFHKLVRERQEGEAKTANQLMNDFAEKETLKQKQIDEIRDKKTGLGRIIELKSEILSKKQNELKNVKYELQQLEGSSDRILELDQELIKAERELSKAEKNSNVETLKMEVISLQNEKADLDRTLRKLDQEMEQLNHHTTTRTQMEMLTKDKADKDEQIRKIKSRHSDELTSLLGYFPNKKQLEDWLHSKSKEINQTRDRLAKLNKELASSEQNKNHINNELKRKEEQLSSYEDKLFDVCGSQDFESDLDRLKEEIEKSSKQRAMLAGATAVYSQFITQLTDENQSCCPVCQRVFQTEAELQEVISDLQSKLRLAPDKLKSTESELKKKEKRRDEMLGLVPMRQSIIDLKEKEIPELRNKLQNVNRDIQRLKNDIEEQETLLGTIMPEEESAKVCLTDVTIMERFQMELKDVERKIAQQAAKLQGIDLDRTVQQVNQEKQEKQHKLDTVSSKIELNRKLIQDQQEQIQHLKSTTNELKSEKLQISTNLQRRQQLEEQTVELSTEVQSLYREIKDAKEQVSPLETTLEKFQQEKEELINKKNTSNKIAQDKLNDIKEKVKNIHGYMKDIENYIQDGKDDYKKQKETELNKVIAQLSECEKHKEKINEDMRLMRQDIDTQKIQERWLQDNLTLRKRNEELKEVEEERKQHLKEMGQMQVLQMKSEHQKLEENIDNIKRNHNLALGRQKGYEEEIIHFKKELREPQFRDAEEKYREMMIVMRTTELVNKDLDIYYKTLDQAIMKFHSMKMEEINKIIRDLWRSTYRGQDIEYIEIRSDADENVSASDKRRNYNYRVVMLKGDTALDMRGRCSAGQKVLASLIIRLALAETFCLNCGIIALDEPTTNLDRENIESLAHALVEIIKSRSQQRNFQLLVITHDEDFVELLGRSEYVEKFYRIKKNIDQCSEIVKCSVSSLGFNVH
UniProt Q13426: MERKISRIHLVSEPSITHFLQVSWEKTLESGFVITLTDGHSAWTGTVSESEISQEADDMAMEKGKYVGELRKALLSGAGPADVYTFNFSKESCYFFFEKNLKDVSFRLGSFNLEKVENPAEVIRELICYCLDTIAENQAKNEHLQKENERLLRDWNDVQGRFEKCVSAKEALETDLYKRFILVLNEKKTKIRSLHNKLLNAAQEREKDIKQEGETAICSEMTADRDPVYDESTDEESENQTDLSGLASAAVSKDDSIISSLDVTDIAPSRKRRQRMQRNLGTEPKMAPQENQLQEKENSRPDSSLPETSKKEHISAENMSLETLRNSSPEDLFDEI
UniProt P13010: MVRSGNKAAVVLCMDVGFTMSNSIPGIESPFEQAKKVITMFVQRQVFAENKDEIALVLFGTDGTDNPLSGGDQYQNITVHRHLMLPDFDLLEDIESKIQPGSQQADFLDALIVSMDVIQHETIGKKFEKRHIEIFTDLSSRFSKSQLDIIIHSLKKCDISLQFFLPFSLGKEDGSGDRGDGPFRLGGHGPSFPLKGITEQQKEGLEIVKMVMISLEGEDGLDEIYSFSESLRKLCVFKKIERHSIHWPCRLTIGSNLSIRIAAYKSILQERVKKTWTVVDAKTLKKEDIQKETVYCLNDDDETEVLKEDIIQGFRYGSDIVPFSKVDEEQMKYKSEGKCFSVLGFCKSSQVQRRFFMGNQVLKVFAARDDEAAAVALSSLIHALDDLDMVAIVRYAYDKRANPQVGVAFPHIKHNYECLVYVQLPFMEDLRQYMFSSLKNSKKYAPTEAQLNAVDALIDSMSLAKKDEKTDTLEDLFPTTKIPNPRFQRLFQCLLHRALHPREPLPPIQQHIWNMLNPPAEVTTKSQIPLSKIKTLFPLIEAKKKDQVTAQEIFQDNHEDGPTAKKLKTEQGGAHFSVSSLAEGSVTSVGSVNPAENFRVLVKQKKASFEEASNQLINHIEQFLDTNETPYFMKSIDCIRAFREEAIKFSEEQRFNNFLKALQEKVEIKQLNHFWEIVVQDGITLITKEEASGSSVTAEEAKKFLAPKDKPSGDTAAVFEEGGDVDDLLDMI

Each substance was assayed against huntingtin (HTT) (human (endogenous in SH-SY5Y)) (UniProt P42858) (assay: affinity purification with mass spectrometry).

Row | Substance | binding
1 | Ku70 (XRCC6) (from UniProt P12956 1-609) | binds
2 | RAD50 (from UniProt Q92878 1-1312) | binds
3 | 53BP1 (p53-binding protein 1) (from UniProt Q12888 1-1972) | binds
4 | XRCC4 (from UniProt Q13426 1-336) | binds

Continued, values first:

Row | binding | Substance
5 | binds | Ku80 (XRCC5) (from UniProt P13010 1-732)
6 | binds | PNKP (polynucleotide kinase 3'-phosphatase) (from UniProt Q96T60 1-521) (enzyme)

These are yes or no findings as the source states them, for the method shown. In cells and extracts the contact can be indirect. A yes stands for co-enrichment or nearness to the bait. Other partners may have been found.
